In patent US20160146830A1:
Substitutions are numbered along the chain they refer to. These are yes or no findings as the source states them, for the method shown. Binding calls can cover weak binding; strength is not graded here.

B1: scFv clone 1 (VH/Clone ID 1) (scFv)
scFv: QEQLEESGDLVKPGASLTLTCTASGFSFSSSYYMAWVRQAPGKGLEWIGCMNSGGDTAYASWAKGRFSISKTSSTTMTLQLTSLTAADTATYFCARNVAGYLCAPAFNFRSPGTLVTVSSGGGSGGGSADVMTQTPSSVTAAVGGTVSISCRSSKSVYNNNWLSWYQQKPGQPPKLLIYETSKLPSGVPSRFSGSGSGTQFTLTISDLECDDAATYYCAGGYRSSSDNGFGGGTEVVVK
B2: scFv clone 2 (VH/Clone ID 2) (scFv)
scFv: QEQLEESGGDLVKPEGSLTLTCTASGFSFSSSYWIWWVRQAPGKGLEWIACIYTGSGTTYYANWAKGRFTISKTSSTTVTLQMTSLTAADTATYFCARMDSHSDGFDPWGPGTLVSVSSGGGGSGGGGSGVELTQTPASVSEPVGGTVTIKCQASQNIYSDLAWYQQKPGQPPKRLIYDASKLPSGVPSRFKGSGSGTEYTLTISDLECADAATYYCQTYHDFDVYGVAFGGGTEVVVE
B3: scFv clone 5A2 (scFv)
scFv: QSLEESGDLVKPGSSLTLTCTGSGFSFSNKYWICWVRQAPGKGLEWIGCIYIGNIDNTDYASWAKGRFTISSTSSTTVTLQMTSLTAADTATYFCARNPGGTSNLWGPGTLVTVSSGGGGSGGGGSGAIVLTQTPSSVEAAVGGTVTIKCQASQSIGSILAWYQQKPGQRPKLLIYYASTLASGVPSRFKGSGSGTQFILTISDLECADAATYYCQSYGYSSSGSYGYRNAFGGGTEVVVE
B4: scFv clone 5F4 (scFv)
scFv: B3 scFv with A128D, I129V, L131M, S158N, I159V, Y177L, G224S, E241K
B5: scFv clone 8 (VH/Clone ID 8) (scFv)
scFv: QQLEESGDLVKPGGTLTLSCTASGFSFSSSYYMCWVRQAPGKGLEWIACIYTGSGSTNYASWAKGRFTISKSSSTTVTLQMTSLTAADTATYFCARSPSSGSSNLWGPGTLVTVSSGGGGSGGGGSGDVMTQTPASVSAAVGGTVTIKCQASQSISNYLSWYQQKPGQRPKLLIDAASTLASGVPSRFKGSGSGTESTLTISDLECADAATYYCLYGYYGVSSTSVAFGGGTEVVVE

target: Concholepas concholepas hemocyanin (CCH) (Concholepas concholepas); assay: monoclonal phage ELISA on CCH-coated plates, anti-M13-HRP

Binder | binding
B1 | binds
B2 | binds
B3 | binds
B4 | binds
B5 | binds
